Measurements from PubChem BioAssay AID540276 (National Center for Advancing Translational Sciences (NCATS), 2011).
In all, about 300,000 compounds went through this assay and about 5,400 (1.8%) were called active. Inconclusive results, whose numbers are uncertain, are shown with a selection of clear calls. Calls follow the shape of the full dose curve; tested in HEK293 cells. Potencies beside an inconclusive call are fits to weak or partial responses and may not hold up.

test: qHTS for inhibitors of binding or entry into cells for Marburg Virus; details: Marburg virus pseudotyped entry inhibition, cell reporter; activity change, negative = inhibition: at 37.8 µM (top of the series) unless noted
% is scaled to controls: 0 for no effect and ±100 for the full control effect; potency is read from the fitted curve at half-maximal effect.

Structure (SMILES) | Potency | activity change, negative = inhibition
Cc1cc(C)nc(NC(=O)c2ccc(COc3ccccc3Cl)cc2)c1 | inconclusive: 2.82 µM [inhibitor, partial curve, poor fit] | 
O=C(/C=C/c1ccccc1Cl)c1ccc(O)cc1 | inconclusive: 22.4 µM [inhibitor, single point] | 
Cc1ccc(/C=C2\SC(=S)N(CCC(=O)NCCCN3CCOCC3)C2=O)cc1 | inconclusive: 3.55 µM [inhibitor, partial curve, poor fit] | 
CC(C)C(=O)NNC(=O)CN1CCN(c2nc(-c3ccccc3)cs2)CC1 | inconclusive: 35.5 µM [inhibitor, single point] | 
Cc1ccc(C)c(N2CCN(c3cnn(-c4nc5ccccc5s4)c(=O)c3Cl)CC2)c1 | inconclusive: 5.01 µM [inhibitor, full curve, poor fit] | 
CC(C)Nc1nc(NC2CCCC2)nc(N2CCOCC2)n1 | inconclusive: 1.78 µM [inhibitor, full curve, poor fit] | 
Cc1cccc(NC(=O)c2cccc(S(=O)(=O)N(C)c3ccccc3)c2)n1 | inconclusive: 11.2 µM [inhibitor, single point] | 
COc1ccc(OC)c(NC(=O)C(Sc2ccccc2)c2ccccc2)c1 (stereo not drawn) | inconclusive: 22.4 µM [inhibitor, single point] | 
CC(=O)Nc1ccc(NC(=O)C(C)OC(=O)C2CCC2)cc1 (stereo not drawn) | inconclusive: 35.5 µM [activator, single point] | 
O=C(CCN1CCN(CCO)CC1)N1c2ccccc2Sc2ccc(C(F)(F)F)cc21 |  | inactive: -5.98%
C=CCn1c(C)c(/C=C/c2cc[n+](C)cc2)c2ccccc21 | active: 2.82 µM | 
CC(C)NCCCCOc1cccc(Br)c1 | inconclusive: 2.06 µM [activator, partial curve, poor fit] | 
NCCc1nnc(SCc2ccc(F)cc2)o1 | inconclusive: 20.6 µM [inhibitor, single point] | 
Cc1cccc(-c2noc(CN(C(=O)COc3ccc(Br)cc3C)C(C)C)n2)c1 |  | inactive: -5.55% [at 46.1 µM]
O=S(=O)(NC1CCCC1)c1ccc(S(=O)(=O)N2CCCN(Cc3ccccc3)C2)cc1 | active: 5.8 µM | 
COc1ccc2c(C(=O)CN3CC(C)OC(C)C3)c[nH]c2c1 (stereo not drawn) |  | inactive: 13.5%
COc1ccc(N(CC(=O)N/N=C/c2cc(Br)c(C)o2)S(=O)(=O)c2ccc(NC(C)=O)cc2)cc1 | inconclusive: 35.5 µM [inhibitor, single point] | 
CCc1ccc(CCC(=O)Nc2sc3c(c2C#N)CCCC3)o1 | active: 2.31 µM | 
N#Cc1nc(N2CCOCC2)nc(N2CCOCC2)n1 | inconclusive: 12.6 µM [inhibitor, partial curve, poor fit] | 
COc1ccccc1NC(=O)C1=C(C)Nc2nc3ccccc3n2C1c1cccs1 (stereo not drawn) | inconclusive: 0.562 µM [inhibitor, full curve] | 
COc1ccccc1/C=C1\SC(=S)N(CCC(=O)N2CCCCC2CCO)C1=O (stereo not drawn) | inconclusive: 28.2 µM [inhibitor, partial curve, poor fit] | 
Cn1c(=O)c2c(nc(CN3CCN(CCO)CC3)n2Cc2cccc3ccccc23)n(C)c1=O | active: 11.6 µM | 
CC(=O)c1ccc(OCc2ccc(Oc3c(Cl)cccc3[N+](=O)[O-])cc2)cc1 | inconclusive: 35.5 µM [inhibitor, single point] | 

Fetched by compound from the entries so far, five records:
Structure (SMILES) | Potency | activity change, negative = inhibition
Cc1cccc(-c2noc(CN(C(=O)COc3ccc(Br)cc3C)C(C)C)n2)c1 |  | inactive: -5.55% [at 46.1 µM]
CC(C)Nc1nc(NC2CCCC2)nc(N2CCOCC2)n1 | inconclusive: 1.78 µM [inhibitor, full curve, poor fit] | 
CC(=O)c1ccc(OCc2ccc(Oc3c(Cl)cccc3[N+](=O)[O-])cc2)cc1 | inconclusive: 35.5 µM [inhibitor, single point] | 
Cc1ccc(C)c(N2CCN(c3cnn(-c4nc5ccccc5s4)c(=O)c3Cl)CC2)c1 | inconclusive: 5.01 µM [inhibitor, full curve, poor fit] | 
C=CCn1c(C)c(/C=C/c2cc[n+](C)cc2)c2ccccc21 | active: 2.82 µM | 

Later entries:

Structure (SMILES) | Potency | activity change, negative = inhibition
CN1N=C(C(F)(F)F)CC1=O |  | inactive: 12.1% [at 46.1 µM]
Cc1ccc(C(=O)N(C)c2nnc(-c3ccncc3)s2)cc1 | inconclusive: 11.2 µM [activator, partial curve] | 
CN(c1ccccc1)c1nc(N2CCCC2)nc(-n2ccnc2)n1 |  | inactive: -25.4% [at 46.1 µM]
COc1ccc(-n2c(Cc3cccn3C)nnc2SCC(=O)Nc2ccc(C)cc2C)cc1 | inactive | 
O=C(Nc1nccs1)C(Br)C(Br)c1ccccc1 (stereo not drawn) | inconclusive: 7.08 µM [inhibitor, partial curve, poor fit] | 
O=C(CSc1nc2ccccc2[nH]1)NCc1ccco1 | inconclusive: 14.6 µM [activator, single point] | 
Cc1[nH]c(C(=O)N/N=C/c2ccc(C(=O)O)cc2)c(C)c1C(=O)N/N=C/c1ccc(C(=O)O)cc1 | inconclusive: 4.61 µM [activator, partial curve, poor fit] | 
O=C(CN(C(=O)CCC(=O)Nc1ccccn1)c1cccc(F)c1)NCc1ccco1 |  | inactive: -9.7% [at 46.1 µM]
O=C(c1n[nH]c(=O)c2ccccc12)N1CCN(C2c3ccccc3-c3ccccc32)CC1 | inconclusive: 16.4 µM [inhibitor, single point] | 
COc1ccc(NC(=S)NN(C)C(=S)Nc2ccc(OC)cc2)cc1 | inconclusive: 4.11 µM [inhibitor, full curve, poor fit] | 
CCCCOC(=O)Nc1ccc(N(C)C)cc1 | inconclusive: 8.91 µM [inhibitor, partial curve, poor fit] | 
COc1cc(C(=O)Nc2nc3nc(-c4ccccc4)cc(=O)n3[nH]2)cc(OC)c1OC |  | inactive: -6.7% [at 46.1 µM]
O=C(CSc1nnc(-c2ccccn2)n1Cc1ccccc1)Nc1ccc2c(c1)OCO2 | inconclusive: 11.2 µM [inhibitor, partial curve, poor fit] | 
O=C(CSc1nnc(-c2ccncc2)n1-c1ccc(Cl)cc1)NCc1cccs1 | inconclusive: 20.6 µM [inhibitor, single point] | 
Cc1ccccc1NC(=S)/C(=C(\[O-])c1ccc(C)c([N+](=O)[O-])c1)[n+]1ccccc1 |  | inactive: -0.0368%
COc1ccc(C(CC(=O)Nc2ccccc2OC)n2cccc2)cc1 (stereo not drawn) | inconclusive: 3.98 µM [activator, single point] | 
Cn1nc(-c2ccc(N3CCOCC3)c(NS(=O)(=O)c3ccccc3)c2)c2ccccc2c1=O | inconclusive: 4.11 µM [inhibitor, partial curve, poor fit] | 
Cc1ccn2c(Nc3ccccc3C)c(-c3ccccn3)nc2c1 | inconclusive: 35.5 µM [inhibitor, single point] | 
Nc1ccc(NC(=O)NC2CCCCC2)cc1[N+](=O)[O-] | inconclusive: 3.55 µM [activator, single point] | 
O=C(NC(=S)Nc1cc(-c2nc3ccccc3[nH]2)ccc1Cl)c1ccc2c(c1)OCO2 |  | inactive: -27%
Cc1ccccc1/C(N)=N/OC(=O)/C=C/c1ccccc1 |  | inactive: 7.54%
CSc1ncccc1C(=O)OCc1ccc(COC(=O)c2cccnc2SC)cc1 |  | inactive: -2.07%
CCCCn1c(N)c(N(CCOC)C(=O)CSc2nc3ccc(C)cc3[nH]2)c(=O)[nH]c1=O | inactive | 

Structure (SMILES) | Potency | activity change, negative = inhibition
COc1nc(Nc2ccccc2F)nc(OC)n1 | inconclusive: 1.58 µM [activator, full curve, poor fit] | 
CC(C)Cn1c(SCC(=O)NCc2ccc(Cl)cc2)nnc1-c1cccc(S(=O)(=O)N2CCOCC2)c1 | inconclusive: 23.1 µM [inhibitor, single point] | 
COc1ccc(S(=O)(=O)Nc2ccccn2)cc1 |  | inactive: 3.86% [at 46.1 µM]
CCc1c(O)nc(SCC(=O)Nc2ccccc2C)n(-c2ccc(C)cc2)c1=O |  | inactive: 1.35% [at 46.1 µM]
O=C(COC(=O)c1ccc2c(c1)C(=O)N(c1cccc3ncccc13)C2=O)c1ccc(Cl)cc1 | inconclusive: 3.16 µM [inhibitor, partial curve, poor fit] | 
COC(=O)c1cc(-c2ccc(Cl)cc2)n(-c2ccc(S(N)(=O)=O)cc2)n1 | inconclusive: 0.562 µM [inhibitor, full curve, poor fit] | 
Cc1ccc(NC(=O)Cn2c(=O)c(C)nc3ccccc32)cc1 | inconclusive: 6.31 µM [activator, partial curve, poor fit] | 
CN(C)C(Cc1ccccc1)C(=O)c1ccc(-c2ccccc2)cc1 (stereo not drawn) | inconclusive: 29.1 µM [inhibitor, single point] | 
CCN(CC)C(=O)CSc1nc2ccc(NC(=O)CSc3nnc(N)s3)cc2s1 | inconclusive: 35.5 µM [inhibitor, single point] | 
COc1ccccc1NC(=O)Cn1c(=O)n(-c2cccc(C(C)=O)c2)c(=O)c2c3c(sc21)CN(C(C)=O)CC3 |  | inactive: 3.06% [at 46.1 µM]
CCOC(=O)c1sc(=NC(=O)COc2ccccc2)n(C)c1C |  | inactive: -4.47%
CCCCCN(C(=O)CCC(=O)OCC(=O)Nc1cccc(SC)c1)c1c(N)n(CCCC)c(=O)[nH]c1=O |  | inactive: -25.4%
Cc1ccc(Nc2nc3c([nH]2)c(=O)n(C)c(=O)n3C)cc1 | inconclusive: 3.26 µM [inhibitor, partial curve] | 
O=C1C2C3C=CC(O3)C2C(=O)N1N=Cc1ccc2c(c1)OCO2 (stereo not drawn) | inconclusive: 5.62 µM [activator, single point] | 
COC(=O)C1=C(O)/C(=C\c2cc(C)n(-c3ccc(F)cc3)c2C)N=C1C | inconclusive: 0.562 µM [inhibitor, partial curve, poor fit] | 
NC(=O)Nn1c(CCC(=O)O)ccc1-c1ccc(Cl)cc1 |  | inactive: 11.4% [at 46.1 µM]
O=C(N/N=C/c1cn(Cc2ccccc2)c2ccccc12)c1cccnc1 | active: 4.47 µM | 
CCC(=O)N1CCN(c2ccc(NC(=O)c3ccc([N+](=O)[O-])o3)cc2Cl)CC1 | inconclusive: 8.91 µM [inhibitor, partial curve, poor fit] | 
CC(=O)N1N=C(c2ccc(C)cc2)CC1c1ccco1 (stereo not drawn) | inconclusive: 1 µM [activator, full curve, poor fit] | 
COc1cccc(OC)c1CNC(=O)CCSCc1ccccc1F | inconclusive: 2.82 µM [inhibitor, single point] | 
CCOc1cccc2cc(C(=O)N3CCc4ccccc43)c(=O)oc12 |  | inactive: 27.1%
COc1ccc2c(/C=N/Nc3ccc(C(=O)O)cc3)c[nH]c2c1 | inconclusive: 3.16 µM [activator, partial curve, poor fit] | 
